In the assay the target is GFP-tagged HNF4α4 (human) (UniProt P41235). Nature of the assay: co-IP.

Sequences of proteins named here, by UniProt entry; tags and fusion partners are left off. A change or cut given only in a name is not applied to a line headed by its entry.
UniProt P41235: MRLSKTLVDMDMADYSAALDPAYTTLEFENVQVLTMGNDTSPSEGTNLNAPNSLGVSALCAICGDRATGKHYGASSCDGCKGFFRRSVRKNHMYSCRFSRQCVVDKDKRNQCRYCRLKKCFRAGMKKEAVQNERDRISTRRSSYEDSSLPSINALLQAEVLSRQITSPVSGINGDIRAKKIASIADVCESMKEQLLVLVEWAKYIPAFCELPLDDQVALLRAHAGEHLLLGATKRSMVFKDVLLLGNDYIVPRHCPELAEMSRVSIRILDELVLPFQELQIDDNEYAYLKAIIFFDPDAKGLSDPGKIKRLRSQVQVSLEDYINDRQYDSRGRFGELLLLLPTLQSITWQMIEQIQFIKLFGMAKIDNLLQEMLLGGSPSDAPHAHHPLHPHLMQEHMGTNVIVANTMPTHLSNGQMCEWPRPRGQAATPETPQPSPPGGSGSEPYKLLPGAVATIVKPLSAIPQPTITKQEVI

No constants are given. Whether binding was seen depends on the method and setting. In cells and extracts the contact can be indirect. A result given as binding can be weak or reduced; the word gives no strength. Tags and fused reporters may be left off the sequences shown.

B1: FLAG-tagged HNF4γ (protein, UniProt Q14541 1-408)
chain: MNTTDNGVNCLCAICGDRATGKHYGASSCDGCKGFFRRSIRKSHVYSCRFSRQCVVDKDKRNQCRYCRLRKCFRAGMKKEAVQNERDRISTRRSTFDGSNIPSINTLAQAEVRSRQISVSSPGSSTDINVKKIASIGDVCESMKQQLLVLVEWAKYIPAFCELPLDDQVALLRAHAGEHLLLGATKRSMMYKDILLLGNNYVIHRNSCEVEISRVANRVLDELVRPFQEIQIDDNEYACLKAIVFFDPDAKGLSDPVKIKNMRFQVQIGLEDYINDRQYDSRGRFGELLLLLPTLQSITWQMIEQIQFVKLFGMVKIDNLLQEMLLGGASNDGSHLHHPMHPHLSQDPLTGQTILLGPMSTLVHADQISTPETPLPSPPQGSGQEQYKIAANQASVISHQHLSKQKQL
As for B1, the binding entry is recorded as “binds”.

Values taken from article doi:10.1101/585604.
